Experimental data reported in PubChem BioAssay AID504467 (National Center for Advancing Translational Sciences (NCATS), 2011).
The whole screen tested about 330,000 compounds, of which about 7,700 (2.3%) were called active. Inconclusive means that the source gave no clear call. Such entries were picked first, then a sample of the others. Calls come from the whole dose curve; as a rule, active = well fitted inhibition curve with a large enough effect; inconclusive = small, poorly fitted or top-dose-only effect, or effect the other way; inactive = flat fitted curve, though single readings scatter. Potencies beside an inconclusive call are fits to weak or partial responses and may not hold up.

assay: qHTS screen for small molecules that inhibit ELG1-dependent DNA repair in human embryonic kidney (HEK293T) cells expressing luciferase-tagged ELG1; conditions: HEK293T ELG1-luciferase reporter, luminescence, 16 h, DNA damage induced by 5-fluorouridine; series mostly up to 46.1 µM; note: nearly all actives have a fitted effect of over 55% in size
In short: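 In this reporter screen, reduction of luminescence relative to DMSO vehicle indicated activity. Compounds and 5-fluorouridine were added together to 2,000 cells per well, incubated for 16 hr at 37 °C, then developed with ONE-Glo.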
Potency is the fitted concentration of half-maximal effect.

Structure (SMILES)	Potency
CCOc1cc(C2Nc3ccccc3C(=O)N2c2ccccc2)ccc1O (stereo unspecified)	inconclusive: 20.6 µM [activator, partial curve]
COc1ccc2c(-c3ccccc3)cc(SCC(=O)NC3CCS(=O)(=O)C3)nc2c1 (stereo unspecified)	inactive
Cc1sc2nc(COC(=O)c3ccc(N4CCCC(C)C4)c([N+](=O)[O-])c3)[nH]c(=O)c2c1C (stereo unspecified)	inactive
C=CCn1c(SCC(=O)NC2CCCCC2)nnc1-c1ccc(OC)cc1	inactive
COc1ccc(C2c3ccc4ccccc4c3Oc3ncn(CCO)c(=N)c32)cc1 (stereo unspecified)	inactive
Cn1cc(C(=O)Nc2ccc(C#N)cc2)c2ccccc2c1=O	inconclusive: 25.9 µM [activator, partial curve, poor fit]
CCOc1ccc2oc(C(=O)NCc3nc4ccccc4[nH]3)c(C)c2c1	inconclusive: 20.6 µM [inhibitor, partial curve, poor fit]
CC(=O)N1CCc2c(sc(NC(=O)CCS(=O)(=O)c3ccccc3)c2C#N)C1	inconclusive: 20.6 µM [activator, single point]
COc1cc(CNCCCN2CCOCC2)cc(Br)c1OCc1ccc(Cl)cc1	inconclusive: 29.1 µM [activator, single point]
N/C(=N\OCC(=O)Nc1ccccc1)c1nonc1N	inconclusive: 18.4 µM [activator, partial curve]
O=C(OCc1csc(-c2ccccc2)n1)c1ccccc1O	inconclusive: 18.3 µM [activator, single point]
CC1(C)Cc2c(sc(NC(=O)Nc3ccccc3)c2C(N)=O)CO1	inconclusive: 1.64 µM [activator, partial curve, poor fit]
COc1ccccc1N1CCN(C(=O)C2CCC(CNS(=O)(=O)c3ccc(NC(C)=O)cc3)CC2)CC1 (stereo unspecified)	inconclusive: 25.9 µM [inhibitor, partial curve]
CCOC(=O)CSc1nnc2c3ccccc3n(C)c2n1	inconclusive: 0.411 µM [activator, partial curve]
CCOC(=O)/C(=C\Nc1ccc(OC(F)(F)F)cc1)Sc1ncc(C(F)(F)F)cc1Cl	inconclusive: 10.3 µM [inhibitor, partial curve, poor fit]
O=C(Nc1cccc(C(=O)O)c1)/C(=C\c1ccc2c(c1)OCO2)NC(=O)c1ccc(Br)o1	inconclusive: 23.1 µM [activator, partial curve]
CC1CN(S(=O)(=O)c2cccc(C(=O)Nc3ccccc3N3CCOCC3)c2)CC(C)O1 (stereo unspecified)	inactive
Cc1nc2ccc(S(=O)(=O)NCC(=O)N3CCN(c4ccccn4)CC3)cc2s1	inconclusive: 16.4 µM [inhibitor, single point]
O=C(NNC(=S)Nc1ccccc1Cl)c1ccccc1	inconclusive: 3.26 µM [activator, partial curve]
Cc1ccc(CC(=O)Nc2ccc(S(=O)(=O)N3CCOCC3)cc2)cc1C	inconclusive: 29.1 µM [inhibitor, single point]
Cc1nc(CS(=O)(=O)c2ccccc2)cc(N2CCOCC2)n1	inconclusive: 23.1 µM [activator, single point]
COc1ccccc1N1CCN(C(=O)c2ccc3nc(-c4ccco4)c(-c4ccco4)nc3c2)CC1	active: 7.31 µM

Part of the list above, reformatted:
Structure (SMILES),Potency
CCOc1cc(C2Nc3ccccc3C(=O)N2c2ccccc2)ccc1O (stereo unspecified),"inconclusive: 20.6 µM [activator, partial curve]"
COc1ccc2c(-c3ccccc3)cc(SCC(=O)NC3CCS(=O)(=O)C3)nc2c1 (stereo unspecified),inactive
Cc1sc2nc(COC(=O)c3ccc(N4CCCC(C)C4)c([N+](=O)[O-])c3)[nH]c(=O)c2c1C (stereo unspecified),inactive
C=CCn1c(SCC(=O)NC2CCCCC2)nnc1-c1ccc(OC)cc1,inactive
COc1ccc(C2c3ccc4ccccc4c3Oc3ncn(CCO)c(=N)c32)cc1 (stereo unspecified),inactive

Continuation:

Structure (SMILES)	Potency
Cc1ccc(C(=O)c2c3ccccc3[n+]([O-])n2CCC(=O)O)cc1	inconclusive: 12.6 µM [activator, single point]
CCCCOP(=O)(OCCCC)C1(NS(=O)(=O)c2ccccc2)C=CC(=O)c2ccccc21 (stereo unspecified)	inconclusive: 29.1 µM [inhibitor, single point]
O=[N+]([O-])c1cc(-c2nnc(-c3ccccc3)o2)ccc1Oc1ccc(Cl)cc1	inconclusive: 20.6 µM [activator, single point]
CC(C(=O)NC(=O)NC1CCCCC1)N1CCN(C(c2ccccc2)c2ccccc2)CC1 (stereo unspecified)	inconclusive: 18.4 µM [inhibitor, partial curve, poor fit]
Cc1cc(NC(=O)CN2C(=O)/C(=C/c3cccc(Br)c3)SC2=S)no1	inactive
CCCCOc1ccc(C2=NNC(=O)CC2)cc1	inconclusive: 14.6 µM [activator, partial curve]
CC(=O)/C=C(\C)N=Nc1c(O)[nH]c2ccccc12	inconclusive: 29.1 µM [activator, single point]
O=C(CCc1nnc(CCC2CCCCC2)o1)NCCc1cccnc1	inactive
COc1ccccc1NC(=O)N1CCN(c2cccc(C(F)(F)F)c2)CC1	inactive
CC1CCc2cc(F)cc3c(O)c(C(=O)NCCN(C)C)c(=O)n1c23 (stereo unspecified)	inactive
CC12CN(Cc3ccccc3)CC(C)(CN(Cc3ccccc3)C1)C2=NO	inconclusive: 29.1 µM [inhibitor, single point]
COc1ccc(C(=O)OC(C)C(=O)Nc2cc(C(F)(F)F)ccc2Cl)c(OC)c1OC (stereo unspecified)	active: 20.6 µM
COc1cc(NC(=O)COC(=O)c2[nH]c(C)c(C(C)=O)c2C)cc(OC)c1	active: 7.3 µM
CCOC(=O)C1CCCN(C(=O)c2ccc(CS(=O)(=O)Cc3ccccc3C)o2)C1 (stereo unspecified)	inconclusive: 29.1 µM [inhibitor, single point]
C[C@@H]1COC(=O)[C@@H](CC(=O)OC(C)(C)C)C/C=C\C[C@H](CC(=O)NCCO)C(=O)N1	inactive
Cc1cccc2cc(C#N)c(NCCNC(=O)NC3CCCCC3)nc12	inactive
COc1ccc2c(-c3ccc(S(N)(=O)=O)cc3)c(-c3ccc(S(C)(=O)=O)cc3)sc2c1	inconclusive: 25.9 µM [inhibitor, partial curve]
COc1ccc(CNC(=O)COC(=O)c2cccnc2Nc2cccc(C(F)(F)F)c2)cc1	inconclusive: 32.6 µM [activator, partial curve, poor fit]
CN(Cc1ccccc1)Cc1nc2c([nH]1)c(=O)n(C)c(=O)n2C	inconclusive: 20.6 µM [inhibitor, single point]
COC(=O)C(C(=O)OC)c1ccc(-n2cccc2)cc1	inactive
O=C(NCc1cccs1)C1CCN(c2nccs2)CC1	inactive
CCNC(=S)N1CCN(c2nc(-c3cccc(OC)c3)cs2)CC1	inconclusive: 23.1 µM [inhibitor, single point]

Structure (SMILES)	Potency
CC(=O)c1cccc(NC(=O)COc2ccccc2C(=O)c2cc(C#N)c(=O)n(C3CCCCC3)c2)c1	active: 10.3 µM
O=C(CCc1ccccc1)Nc1nnc(-c2ccc3c(c2)CCCC3)o1	inconclusive: 18.4 µM [activator, partial curve, poor fit]
COC(=O)N/N=C/c1cn(CC(C)COc2ccccc2)c2ccccc12 (stereo unspecified)	inconclusive: 25.9 µM [inhibitor, single point]
Nc1nnc(/C=C/c2cccc([N+](=O)[O-])c2)s1	inconclusive: 20.6 µM [activator, partial curve]
CCC(C)Cn1c(O)cc2nn(-c3nc4ccccc4s3)c(=O)c-2c1C (stereo unspecified)	inconclusive: 6.51 µM [activator, single point]
CCOC(=O)c1[nH]c(C)c(C(=O)Nc2ccc3c(c2)OCCO3)c1C	inconclusive: 4.11 µM [activator, partial curve, poor fit]
Cc1ccc(C(=O)CNc2ccc(C)c(Cl)c2)cc1	inconclusive: 16.4 µM [activator, partial curve]
Cc1ccc(NC(=O)COC(=O)c2ccc(-n3nc(C)cc3C)cc2)c(F)c1	inactive
COc1ccc(-c2csc(NC(=O)C3COc4ccccc4O3)n2)cc1OC (stereo unspecified)	inconclusive: 23.1 µM [inhibitor, single point]
CCN(CC)c1ccc(NC(=O)CCCCCN2C(=O)c3ccccc3C2=O)cc1	inconclusive: 16.4 µM [inhibitor, partial curve, poor fit]
Cc1ccc(-n2ncc3c(NCc4cccnc4)ncnc32)cc1C	inconclusive: 2.06 µM [activator, full curve]
COC(=O)c1cc(OC)c(OC)cc1NC(=O)Cn1nnc(-c2ccccc2Cl)n1	inconclusive: 20.6 µM [inhibitor, single point]
CCOC(=O)N1CCC(N2Cc3cccc(C(=O)N4CCN(c5cccc(C)c5C)CC4)c3C2=O)CC1	inconclusive: 20.6 µM [inhibitor, single point]
CN(C(=O)COC(=O)C1=COCCO1)c1c(N)n(Cc2ccccc2)c(=O)[nH]c1=O	inactive
CCCNC(=O)CSc1nnc(-c2ccccc2Br)n1-c1cccc(C(F)(F)F)c1	inconclusive: 13 µM [inhibitor, partial curve, poor fit]
CSc1ccc(CN(C)C(=O)CNC(=O)CNS(=O)(=O)c2ccc(C)c(C)c2)cc1	inactive
CCCOC(=O)c1ccc(-c2ccc(C=O)o2)cc1	inconclusive: 0.92 µM [activator, full curve]
CCn1c(SCC(=O)NC2(C#N)CCCCC2)nc2ccccc2c1=O	inactive
Cc1cc(C)c(NC(=O)CN2C(=O)CC(C)S(=O)(=O)c3ccccc32)c(C)c1 (stereo unspecified)	inconclusive: 13 µM [activator, partial curve, poor fit]
Cc1cc(OCC(=O)Nc2nccs2)c2c(C)cc(=O)oc2c1	inconclusive: 20.6 µM [activator, single point]
C/C(=N\NC(=O)c1ccccc1O)c1c(O)cc(C)oc1=O	inconclusive: 18.4 µM [activator, partial curve]
C=CCN1N=C(/C=C/c2ccccc2)CCC1=O	inconclusive: 18.3 µM [activator, partial curve]
